For one substance, binding results are on record in paper PMC7467916.

Results are given in words; binding and its absence hold for the method and conditions named. In cells and extracts the contact can be indirect. Some binding calls cover weakened binding; strength is not graded here.

Test [1] addresses NMDA receptor subunit GluN2B (rat (endogenous in primary hippocampal neurons)) (UniProt Q00960). Briefly: proximity ligation; primary rat hippocampal neurons fixed in cold 10% trichloroacetic acid, permeabilised in 0.1% Triton X-100; mouse antibodies against Na,K-ATPase α1 (a6f) or α3 with rabbit antibodies against GluN2A or GluN2B; Duolink In Situ Red Kit Mouse/Rabbit; signal when the probes are within about 40 nm.

The target of test [2] is NMDA receptor subunit GluN2A (rat (endogenous in primary hippocampal neurons)) (UniProt Q00959). The test is described as above.

Take “Na,K-ATPase α3 subunit (from UniProt P06687 1-1013)”: the binding result in test [1] and in test [2] was “binds” each time.
